From PMC4728560, “TCTP contains a BH3-like domain, which instead of inhibiting, activates Bcl-xL” (Scientific Reports, 2016) come the findings set out here.

Chains of the proteins cited; added tags and fusions are not shown.
UniProt Q07817: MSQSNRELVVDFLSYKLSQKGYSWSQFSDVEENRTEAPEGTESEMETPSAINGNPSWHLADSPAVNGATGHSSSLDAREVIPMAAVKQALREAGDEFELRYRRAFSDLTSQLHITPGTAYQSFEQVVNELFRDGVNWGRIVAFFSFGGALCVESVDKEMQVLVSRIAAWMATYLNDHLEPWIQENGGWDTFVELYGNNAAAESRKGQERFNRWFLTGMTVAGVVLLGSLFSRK
UniProt Q07812: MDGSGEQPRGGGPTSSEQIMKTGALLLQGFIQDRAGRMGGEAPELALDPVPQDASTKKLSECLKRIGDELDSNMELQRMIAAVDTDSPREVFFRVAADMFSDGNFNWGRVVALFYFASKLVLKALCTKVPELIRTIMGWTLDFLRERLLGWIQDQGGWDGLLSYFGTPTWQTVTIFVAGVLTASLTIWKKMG

Positions count from the first letter of the chain named. Numbers in names are those of the source. These are yes or no findings as the source states them, for the method shown. Binding seen in cells or lysates may run through a third protein. Some results given as binding are weak or reduced against the parent protein; the word gives no strength. Tags and fused reporters may be left off the sequences shown.

Common to all, as to experiment: FRET or BRET; BRET in transiently transfected cells; Luciferase-fused TCTP as donor, increasing levels of YFP-fused acceptor; also with ABT-737 treatment of the cells (signals significantly inhibited)
Background: In BRET a luciferase serves as donor, and the signal depends on an acceptor being close.

In assay [1] the target is YFP-fused Bcl-xL (BRET acceptor) (human), Q07817. The settings on record: remark: other sources report otherwise.
In assay [2] the target is YFP-fused Bcl-xL (BRET acceptor) (human) (UniProt Q07817).
Assay [3] concerns the target YFP-fused BAX (BRET acceptor) (UniProt Q07812).

B1: Luciferase-fused TCTP (BRET donor), P13693 1-172 (protein)
chain: MIIYRDLISHDEMFSDIYKIREIADGLCLEVEGKMVSRTEGNIDDSLIGGNASAEGPEGEGTESTVITGVDIVMNHHLQETSFTKEAYKKYIKDYMKSIKGKLEEQRPERVKPFMTGAAEQIKHILANFKNYQFFIGENMNPDGMVALLDYREDGVTPYMIFFKDGLEMEKC
On to B1, for which the binding entry in assay [1] was “binds”.

B2: Luciferase-fused TCTP R21A (BRET donor) (protein, UniProt P13693 1-172)
chain: B1 chain with R21A
In the case of B2, the binding entry in assay [2] is “no binding”.

B3: Luciferase-fused TCTP (BRET donor) (protein, UniProt P13693 1-172)
chain: B1 chain
For B3, the binding result in assay [3] was “no binding”.
